Experimental data as given in patent US20150232507A1 (ERA BIOTECH S A, published 2015).

Molecular target: T1, DE^C: DnaE^C-[C-extein]linker-Trx-EFRSHHHHHH fusion protein (Npu DnaE)
T1 chain: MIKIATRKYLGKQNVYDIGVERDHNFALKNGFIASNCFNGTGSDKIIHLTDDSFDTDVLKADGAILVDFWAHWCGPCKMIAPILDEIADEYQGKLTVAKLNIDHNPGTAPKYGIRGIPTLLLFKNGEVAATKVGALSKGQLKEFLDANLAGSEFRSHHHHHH
Assay: cell-based or functional assay

B1: DE^N: StreptagII-gpD-linker-DnaE^N fusion protein (Npu DnaE) (other)
chain: MASWSHPQFEKASKETFTHYQPQGNSDPAHTATAPGGLSAKAPAMTPLMLDTSSRKLVAWDGTTDGAAVGILAVAADQTSTTLTFYKSGTFRYEDVLWPEAASDETKKRTAFAGTAISIVGSCLSYETEILTVEYGLLPIGKIVEKRIECTVYSVDNNGNIYTQPVAQWHDRGEQEVFEYCLEDGSLIRATKDHKFMTVDGQMLPIDEIFERELDLMRVDNLPN
trans-splicing first order rate constant k, 25 °C: 0.0034 s⁻¹ | trans-splicing t1/2, 25 °C: 3 min
